Changes are numbered by the printed parent chain.
B1: 51K1, 72A (protein, listed as Rattus norvegicus)
chain: AFDGTWKVDRNENYEKFMEKMGINVVKRKLGAHDNLKLTITQEGNKFTVKKSSNFRNIDVVFELGVDFAYSAADGTELTGTWTMEGNKLVGKFKRVDNGKELIAVREISGNELIQTYTYEGVEAKRIFKKE
modifications: PEPTIDE (1)...(131) wild-type rat intestinal fatty acid binding protein
B2: 51L3, 72A (protein, listed as Rattus norvegicus)
chain: B1 chain with K51L
modifications: PEPTIDE (1)...(131) wild-type rat intestinal fatty acid binding protein
B3: 51N1, 72A (protein, listed as Rattus norvegicus)
chain: B1 chain with K51N
modifications: PEPTIDE (1)...(131) wild-type rat intestinal fatty acid binding protein
B4: 51P3, 72A (protein, listed as Rattus norvegicus)
chain: B1 chain with K51P
modifications: PEPTIDE (1)...(131) wild-type rat intestinal fatty acid binding protein
B5: 51Q1, 72A (protein, listed as Rattus norvegicus)
chain: B1 chain with K51Q
modifications: PEPTIDE (1)...(131) wild-type rat intestinal fatty acid binding protein
B6: 51R1, 72A (protein, listed as Rattus norvegicus)
chain: B1 chain with K51R
modifications: PEPTIDE (1)...(131) wild-type rat intestinal fatty acid binding protein
B7: 51S1, 72A (protein, listed as Rattus norvegicus)
chain: B1 chain with K51S
modifications: PEPTIDE (1)...(131) wild-type rat intestinal fatty acid binding protein
B8: 51T3, 72A (protein, listed as Rattus norvegicus)
chain: B1 chain with K51T
modifications: PEPTIDE (1)...(131) wild-type rat intestinal fatty acid binding protein
B9: 51V3, 72A (protein, listed as Rattus norvegicus)
chain: B1 chain with K51V
modifications: PEPTIDE (1)...(131) wild-type rat intestinal fatty acid binding protein
B10: 51W2, 72A (protein, listed as Rattus norvegicus)
chain: B1 chain with K51W
modifications: PEPTIDE (1)...(131) wild-type rat intestinal fatty acid binding protein
B11: 51Y1, 72A (protein, listed as Rattus norvegicus)
chain: B1 chain with K51Y
modifications: PEPTIDE (1)...(131) wild-type rat intestinal fatty acid binding protein
B12: 55A1, 72A (protein, listed as Rattus norvegicus)
chain: B1 chain with K51E, F55A
modifications: PEPTIDE (1)...(131) wild-type rat intestinal fatty acid binding protein
B13: 55D1, 72A (protein, listed as Rattus norvegicus)
chain: B1 chain with K51E, F55D
modifications: PEPTIDE (1)...(131) wild-type rat intestinal fatty acid binding protein
B14: 55E, 72A (protein, listed as Rattus norvegicus)
chain: B1 chain with K51E, F55E
modifications: PEPTIDE (1)...(131) wild-type rat intestinal fatty acid binding protein
B15: 55G1, 72A (protein, listed as Rattus norvegicus)
chain: B1 chain with K51E, F55G
modifications: PEPTIDE (1)...(131) wild-type rat intestinal fatty acid binding protein
B16: 55H2, 72A (protein, listed as Rattus norvegicus)
chain: B1 chain with K51E, F55H
modifications: PEPTIDE (1)...(131) wild-type rat intestinal fatty acid binding protein
B17: 55I1, 72A (protein, listed as Rattus norvegicus)
chain: B1 chain with K51E, F55I
modifications: PEPTIDE (1)...(131) wild-type rat intestinal fatty acid binding protein
B18: 55K1, 72A (protein, listed as Rattus norvegicus)
chain: B1 chain with K51E, F55K
modifications: PEPTIDE (1)...(131) wild-type rat intestinal fatty acid binding protein
B19: 55L1, 72A (protein, listed as Rattus norvegicus)
chain: B1 chain with K51E, F55L
modifications: PEPTIDE (1)...(131) wild-type rat intestinal fatty acid binding protein
B20: 55M1, 72A (protein, listed as Rattus norvegicus)
chain: B1 chain with K51E, F55M
modifications: PEPTIDE (1)...(131) wild-type rat intestinal fatty acid binding protein
B21: 55N1, 72A (protein, listed as Rattus norvegicus)
chain: B1 chain with K51E, F55N
modifications: PEPTIDE (1)...(131) wild-type rat intestinal fatty acid binding protein
B22: 55P1, 72A (protein, listed as Rattus norvegicus)
chain: B1 chain with K51E, F55P
modifications: PEPTIDE (1)...(131) wild-type rat intestinal fatty acid binding protein
B23: 55Q1, 72A (protein, listed as Rattus norvegicus)
chain: B1 chain with K51E, F55Q
modifications: PEPTIDE (1)...(131) wild-type rat intestinal fatty acid binding protein
B24: 55R1, 72A (protein, listed as Rattus norvegicus)
chain: B1 chain with K51E, F55R
modifications: PEPTIDE (1)...(131) wild-type rat intestinal fatty acid binding protein
B25: 55S1, 72A (protein, listed as Rattus norvegicus)
chain: B1 chain with K51E, F55S
modifications: PEPTIDE (1)...(131) wild-type rat intestinal fatty acid binding protein
B26: 55T1, 72A (protein, listed as Rattus norvegicus)
chain: B1 chain with K51E, F55T
modifications: PEPTIDE (1)...(131) wild-type rat intestinal fatty acid binding protein
B27: 55W2, 72A (protein, listed as Rattus norvegicus)
chain: B1 chain with K51E, F55W
modifications: PEPTIDE (1)...(131) wild-type rat intestinal fatty acid binding protein
B28: 55Y3, 72A (protein, listed as Rattus norvegicus)
chain: B1 chain with K51E, F55Y
modifications: PEPTIDE (1)...(131) wild-type rat intestinal fatty acid binding protein
B29: 60A, 72A (protein, listed as Rattus norvegicus)
chain: B1 chain with K51E, V60A
modifications: PEPTIDE (1)...(131) wild-type rat intestinal fatty acid binding protein
B30: 60C, 72A (protein, listed as Rattus norvegicus)
chain: B1 chain with K51E, V60C
modifications: PEPTIDE (1)...(131) wild-type rat intestinal fatty acid binding protein
B31: 60F, 72A (protein, listed as Rattus norvegicus)
chain: B1 chain with K51E, V60F
modifications: PEPTIDE (1)...(131) wild-type rat intestinal fatty acid binding protein
B32: 60G, 72A (protein, listed as Rattus norvegicus)
chain: B1 chain with K51E, V60G
modifications: PEPTIDE (1)...(131) wild-type rat intestinal fatty acid binding protein
B33: 60H, 72A (protein, listed as Rattus norvegicus)
chain: B1 chain with K51E, V60H
modifications: PEPTIDE (1)...(131) wild-type rat intestinal fatty acid binding protein
B34: 60I, 72A (protein, listed as Rattus norvegicus)
chain: B1 chain with K51E, V60I
modifications: PEPTIDE (1)...(131) wild-type rat intestinal fatty acid binding protein
B35: 60K, 72A (protein, listed as Rattus norvegicus)
chain: B1 chain with K51E, V60K
modifications: PEPTIDE (1)...(131) wild-type rat intestinal fatty acid binding protein

Assay: Baseline fluorescence ratio Ro of probe in absence of analyte
Settings: average baseline fluorescence ratio Ro of the clone probe; substitutions with respect to SEQ ID NO: 2

Molecule | AvgOfRo
B1 | 0.37
B2 | 0.39
B3 | 0.38
B4 | 0.38
B5 | 0.40
B6 | 0.40
B7 | 0.38
B8 | 0.40
B9 | 0.40
B10 | 0.39
B11 | 0.38
B12 | 0.18
B13 | 0.18
B14 | 0.25
B15 | 0.20
B16 | 0.18
B17 | 0.18
B18 | 0.30

Molecule | AvgOfRo
B19 | 0.16
B20 | 0.36
B21 | 0.20
B22 | 0.33
B23 | 0.23
B24 | 0.24
B25 | 0.20
B26 | 0.17
B27 | 0.23
B28 | 0.12
B29 | 0.23
B30 | 0.17
B31 | 0.25
B32 | 0.23
B33 | 0.29
B34 | 0.20
B35 | 0.41

Same assay, conditions: baseline fluorescence ratio of probe, no fatty acid

Molecule | Ro
B29 | 0.227
B31 | 0.247
B34 | 0.202
B35 | 0.465

Reference: patent publication US20060257938A1, “Method of screening for drugs that block ligand binding to a lipid binding protein” (priority 2005, published 2006)
